Laboratory results taken from patent US20260021109A1, “PROSTANOID RECEPTOR AGONISTS AS NON-TUBERCULOUS ANTI-MYCOBACTERIAL AGENTS” (priority 2022, published 2026).
For at least one compound, name, drawing or mass did not settle the structure.

Key:
M. abscessus = M. abscessus in liquid culture (absence of THP1 cells); type: cell-based; conditions: liquid culture medium, no THP1 cells; Treprostinil 50 μM; versus untreated; FIG. 6
M. marinum = M. marinum infection of zebrafish; type: in vivo; conditions: zebrafish infected by M. marinum; FIG. 4C

SMILES | direct antibiotic effect on M. abscessus growth (M. abscessus) | effect on M. marinum numbers in zebrafish (M. marinum)
C[C@@H](O)[C@H]1C(=O)N2C(C(=O)O)=C(SCCN=CN)C[C@H]12 [imipenem] | bactericidal effect | –
CO[C@H]1/C=C/O[C@@]2(C)Oc3c(C)c(O)c4c(O)c(c(/C=N/N5CCN(C)CC5)c(O)c4c3C2=O)NC(=O)/C(C)=C\C=C\[C@H](C)[C@H](O)[C@@H](C)[C@@H](O)[C@@H](C)[C@H](OC(C)=O)[C@@H]1C [rifampicin] | – | significantly reduced
